Laboratory results published in PubChem BioAssay AID493014 (National Center for Advancing Translational Sciences (NCATS), 2011).
Values joined by “and” are separate entries in the source; they are usually repeats but may differ in a detail not shown here. Identical values can stand only once. Some of the results follow. These are further read-outs of the screen, such as a control signal, another cell line or another target. No call is given for them. Compounds called inactive in the main read-out are mostly missing here. Potencies come from curve fits of mixed quality, noted in brackets.

Test: qHTS Assay to Find Inhibitors of Chronic Active B-Cell Receptor Signaling
Conditions: ABC-DLBCL IkBa-CBG/CBR reporter, luminescence ratio (green luciferase fused to IkBa over red control in TMD8 lymphoma cells), 4 h
Outline: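 Concentration-response series (up to 46 uM) were applied to TMD8 dual-reporter cells for 4 h at 37C with doxycycline. Green/red ratio, after filter-overlap correction, defined %Activity; red signal alone was normalised to basal cells and zero luminescence.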

[1] = measured here: CBR red luminescence, cell number
[2] = measured here: IkBa-CBG green luminescence

SMILES	AC50 [1]	AC50 [2]
O=C(C1CCCN1S(=O)(=O)c1ccc(Cl)cc1)N1CCOCC1 (stereo not given)	16.4 µM [rising, single point]	–
CC(=O)N1C(=O)N(C)C2C1N(C(C)=O)C(=O)N2C (stereo not given)	29.1 µM [rising, single point]	–
COc1ccc(CNc2ccc(Br)cc2)cc1	1.26 µM [rising, full curve, poor fit]	–
C/C(=N/Nc1nc(-c2ccccc2)cc(-c2ccc(F)cc2)n1)c1cccc(N)c1	3.66 µM [falling, full curve]	–
N#CC1=C(N)NC(SCc2ccc(F)cc2)=C(C#N)C12CCCCC2	23.1 µM [falling, single point]	–
O=C(Nc1ccccc1C(F)(F)F)N1CCC(n2c(=O)[nH]c3ccccc32)CC1	6.51 µM [rising, single point]	–
O=C(Nc1ccccc1Cl)N1CCSc2ccccc21	3.98 µM [rising, full curve, poor fit]	–
O=C(N/N=C/c1ccc([N+](=O)[O-])cc1)c1ccccc1OCc1ccccc1	1.12 µM [falling, partial curve, poor fit]	–
COc1ccc(N=N/C(=C\O)C(=O)c2cccs2)cc1	6.31 µM [rising, partial curve]	11.2 µM [falling, partial curve, poor fit]
O=C(Nc1cccc(Cl)c1)N(Cc1nc2ccccc2c(=O)[nH]1)C1CCCC1	12.6 µM [rising, partial curve, poor fit]	–
O=C(NNC(=O)c1cc(C(F)(F)F)cc(C(F)(F)F)c1)c1ccc(Cl)cc1	6.31 µM [rising, single point]	–
COC(=O)Cn1c(=NC(=O)c2ccc(S(=O)(=O)N3CCOCC3)cc2)sc2cc(S(N)(=O)=O)ccc21	2.51 µM [rising, full curve, poor fit]	–
Cc1ccc(C(c2nnnn2Cc2ccccc2)N2CCN(Cc3ccccc3)CC2)cc1 (stereo not given)	13 µM [falling, single point]	–
Cn1cc(/C=C(\C#N)C(=O)Nc2ccccc2O)c2ccccc21	2.24 µM [falling, partial curve, poor fit]	–
CC[C@]12c3[nH]c4cc(-c5ccco5)ccc4c3CCN1C(=O)[C@@H](CC(=O)NCCC1=CCCCC1)C[C@@H]2C(=O)N1CCN(C(=O)c2ccco2)CC1	0.731 µM [rising, full curve, poor fit]	–
CN(C)S(=O)(=O)NCCNC(=O)c1cc(OCC(F)(F)F)ccc1OCC(F)(F)F	28.2 µM [rising, single point]	–
O=C(Nc1ccc(F)cc1)c1cccc2c1C(=O)N(CC1CCCO1)C2 (stereo not given)	–	3.55 µM [rising, partial curve, poor fit]
O=C(CSc1nnc(-c2ccco2)o1)c1ccc[nH]1	10 µM [falling, partial curve]	–
O=C(O)c1ccccc1CSC1=NCCS1	2 µM [rising, partial curve, poor fit]	–
O=C(NCc1ccc(F)cc1)C(=O)c1cn(CC(=O)N2CCCC2)c2ccccc12	6.31 µM [falling, full curve, poor fit]	–
C=CCSc1nc(C)c(CCC(C)C)c(=O)[nH]1	35.5 µM [rising, partial curve, poor fit]	–

SMILES	AC50 [1]	AC50 [2]
C/C(=N\NC(=O)c1ccccn1)c1ccc(C(=O)O)s1	3.98 µM [falling, full curve]	–
COc1ccc(C(=O)c2sc(Nc3ccccc3)nc2N)cc1	3.55 µM [falling, partial curve] and 10 µM [falling, partial curve, poor fit]	–
O=C(Cc1ccccc1)NC(=S)Nc1ccc(N2CCCCC2)cc1	0.184 µM [rising, full curve]	–
CCN(CC)c1ccc(/C=N/Nc2ccccc2)c(O)c1	14.1 µM [rising, partial curve, poor fit]	–
CCNS(=O)(=O)c1c(C)cc(N2CCCC2=O)cc1C	32.6 µM [rising, single point]	–
c1ccc(-c2ccc(OCCOCCn3cncn3)cc2)cc1	2.06 µM [rising, partial curve, poor fit]	–
CC(C)CN(C(=O)c1cccc(S(=O)(=O)N2CCN(Cc3ccccc3)CC2)c1)C1CCS(=O)(=O)C1 (stereo not given)	13 µM [falling, partial curve, poor fit]	–
COc1cccc(N2CC(NC(=O)c3cc(Cl)ccc3OC)CC2=O)c1 (stereo not given)	35.5 µM [falling, partial curve, poor fit]	–
O=C1CCN(Cc2ccccc2)C(=O)N1c1ccccc1	0.282 µM [falling, partial curve, poor fit]	–
CC(Cl)C(=O)Nc1ncc(C(F)(F)F)cc1Cl (stereo not given)	6.51 µM [falling, single point]	–
Cc1ccc(C(CC(=O)NCCCN(C)C)c2ccc(OC(C)C)cc2)cc1 (stereo not given)	20 µM [falling, single point]	–
Cc1cc(C)nc(N/N=C/c2ccccc2OCc2ccc([N+](=O)[O-])cc2)n1	2.06 µM [falling, partial curve]	–
CN(C(=S)NC(=O)/C=C/c1ccc(F)cc1)C1CCCCC1	1.3 µM [rising, full curve]	–
C/C(=N\Nc1ccc(Cl)c(C(=O)O)c1)c1cccs1	7.08 µM [falling, partial curve]	–
Cc1ccc(-n2c(SCC(=O)NCc3ccco3)nc3c([nH]c4ccccc43)c2=O)cc1	2 µM [rising, full curve, poor fit]	–
O=C(NCc1cccnc1)C(=O)Nc1ccc2c(c1)OCO2	28.2 µM [falling, single point]	–
COc1ccccc1-c1nnc(NC(=O)Cc2ccccc2)o1	17.8 µM [falling, single point]	–
Cn1c(O)c(N=NC(=S)Nc2ccccc2F)c2cc(S(=O)(=O)N3CCOCC3)ccc21	5.62 µM [rising, single point]	3.98 µM [falling, full curve]
N#Cc1ccc(CSc2nnc(Nc3ccccc3)s2)cc1	6.31 µM [rising, single point]	–
C[C@H](CO)N1C[C@H](C)[C@@H](CN(C)S(=O)(=O)c2ccc(F)cc2)Oc2c(NC(=O)Nc3ccc(C(F)(F)F)cc3)cccc2C1=O	23.1 µM [falling, partial curve, poor fit]	–
O=C(Cc1ccc([N+](=O)[O-])cc1)N/N=C/c1ccccc1F	11.2 µM [rising, partial curve]	–

SMILES	AC50 [1]	AC50 [2]
Cc1ccc(/C=C2\SC(=S)N(CCCC(=O)Nc3cc(C)on3)C2=O)cc1	3.16 µM [falling, full curve, poor fit]	–
O=c1[nH]cnc2c1c(-c1ccccc1)cn2-c1ccc(F)cc1	18.4 µM [falling, single point]	–
COc1ccccc1Nc1nc(N)nc(CN2CCc3ccccc3C2)n1	18.4 µM [rising, partial curve]	18.4 µM [falling, single point]
N#CC(C#N)=C1NC2(CCCC2)Cc2ccccc21	16.4 µM [rising, partial curve, poor fit]	–
Cc1ccc(C(NC(=O)c2ccccc2)C(Cl)(Cl)Cl)cc1 (stereo not given)	0.82 µM [falling, partial curve, poor fit]	–
COc1ccc(NC(=O)Nc2cccc3c2O[C@H](CN(C)S(=O)(=O)c2c(C)noc2C)[C@@H](C)CN([C@H](C)CO)C3=O)cc1	14.6 µM [rising, partial curve]	–
COCc1[nH]nc2c1C(c1cccc(OC)c1)C(C#N)=C(N)O2 (stereo not given)	6.31 µM [falling, full curve, poor fit]	–
CC(C)c1ccc(NC(=O)COC(=O)COc2ccccc2)cc1	29.1 µM [rising, partial curve, poor fit]	–
CCc1cc([N+](=O)[O-])cc(CC)c1N	5.8 µM [rising, full curve, poor fit]	–
O=C(Nc1ccccc1)c1ccc(CSc2ncccn2)cc1	11.2 µM [falling, partial curve]	–
COc1ccc(NC(=O)CCC(=O)c2cccs2)cc1Cl	8.91 µM [rising, partial curve]	–
COCc1nnc(NC(=O)c2sc3ccccc3c2Cl)s1	20 µM [falling, single point]	–
CCc1ccc(C2=CC(c3c(F)cccc3Cl)n3c(nc4ccccc43)N2)cc1 (stereo not given)	12.6 µM [falling, partial curve]	–
COC(=O)C1=C(C(=O)OC)[C@@H]2N(C)c3ccc(OC)cc3[C@@]23C[C@@H](C(=O)OC)N(C(=O)C2CCC2)C3=N1	11.2 µM [rising, partial curve, poor fit]	–
CCOC(=O)CN1C(=O)S/C(=C/c2ccco2)C1=O	11.2 µM [rising, partial curve]	–
NC(=O)CSc1nc2ccccc2n1Cc1ccccc1F	32.6 µM [falling, partial curve, poor fit]	–
O=C(Nc1ccc2c(c1)OCO2)Nc1ccc(Br)cn1	29.1 µM [rising, single point]	–
CCCC(=O)NC(=S)Nc1ccc(S(=O)(=O)Nc2ccc(OCC)cc2)cc1	14.6 µM [falling, partial curve, poor fit]	–
O=C(NCC1CCCO1)c1ccc(COc2ccccc2Br)cc1 (stereo not given)	16.4 µM [falling, single point]	–
CCOc1ccc(N2C(=O)CC(Sc3ccccc3C(=O)O)C2=O)c([N+](=O)[O-])c1 (stereo not given)	35.5 µM [falling, single point]	–
